Source: patent US20040091479A1, “T-cell epitope of the papillomavirus l1 and e7 protein and use thereof in diagnostics and therapy” (priority 2000, published 2004)
Part of at least one peptide drawing is inferred or uncertain, most often the ends. Some entries repeat one wording, which the source may state once for all of them. Where a SMILES comes first, the peptide text is derived from it.

Columns and labels:
[1] = tested on: CVLP-stimulated CD4-positive T cells; assay: Restimulating HPV18 CVLP-stimulated T cells with BLCL presenting HPV18 peptide pools (example 12); assay type: cell-based, human; conditions: peptide common to two reactive HPV18 pools; CD4/IFNγ
Procedure: In analogy with example 6, human T cells derived from a non-HLA-typed blood donor were stimulated, at 37° C., with HPV18L1ΔCDIE71-53DI CVLPs and HPV18L1ΔCDIE71-60DI CVLPs and harvested.
The T cells were then restimulated, at 37° C. and in 100 μl of medium, with the HPV18 peptide pools from example 6 and 10^5 antigen-presenting cells (donor-identical BLCL) in the presence of 10 IU of IL2/ml. Use was made, in this connection, of quantities of the peptide pools which were such that 1 μg/ml was added in the case of each individual peptide. Cells which were only incubated with buffer served as the negative control while cells which were incubated with HPV18 L1 peptide pool served as the positive control.
(§1) 1 μl of monensin was added after an hour. The cells were then incubated at 37° C. for a further 5 hours. After that, the cells were fixed and permeabilized and stained with α-human CD8/APC, with α-human CD4/PerCP and with α-human IFNγ/FITC. The labeling of the cells was examined in a FACScan Calibur and the results of the measurements were analyzed using Cellquest software.

[2] = tested on: HPV18 CVLP-stimulated human T cells; assay: Restimulating HPV18 CVLP-stimulated T cells with BLCL presenting Q38, Q39, Q46 or Q47 (example 13); assay type: cell-based; conditions: for proportion of reactive CD4-positive and IFNγ-positive T cells / proportion of reactive CD4-positive and IL4-positive T cells / proportion of CD8-positive and IL4-positive cells / proportion of reactive CD8-positive and IFNγ-positive T cells: 1 μg peptide/ml; for proportion of reactive CD4-positive and IFNγ-positive T cells: donor-identical BLCL, FIG. 12 top left; for proportion of reactive CD4-positive and IL4-positive T cells: FIG. 12 bottom left; for proportion of CD8-positive and IL4-positive cells: FIG. 12 lower right; for proportion of reactive CD8-positive and IFNγ-positive T cells: FIG. 12 top right; for T cell epitope assignment (TH2): conclusion from FIG. 12 bottom left; for T cell epitope assignment (TH1): conclusion from FIG. 12 top left
Procedure: In analogy with example 6, human T cells (4×10^5) derived from a non-HLA-typed blood donor were stimulated with HPV18L1ΔCDIE71-53DI CVLPs and HPV18L1ΔCDIE71-60DI CVLPs and harvested.
The T cells were then restimulated, at 37° C. and in 100 μl of medium, with in each case 1 μg of peptide Q38, Q39, Q46 or Q47/ml and 10^5 antigen-presenting cells (donor-identical BLCL) in the presence of 10 IU of IL2/ml. Cells which were only incubated with buffer served as the negative control while cells which were incubated with the HPV18 L1 peptide pool or the E7 peptide pool served as positive controls.
as §1

[3] = tested on: human T cells; assay: Summary of examples 3 to 18: epitopes recognized by human T cells; assay type: cell-based; conditions: Table 4, HPV18 peptides, species human

Compound: CC[C@H](C)[C@H](NC(=O)[C@H](C)NC(=O)[C@@H](NC(=O)[C@H](CO)NC(=O)[C@H](CCC(N)=O)NC(=O)[C@@H](NC(=O)[C@H](Cc1ccccc1)NC(=O)[C@H](CCCNC(=N)N)NC(=O)[C@@H](N)Cc1ccc(O)cc1)C(C)C)C(C)C)C(=O)N[C@H](C(=O)N[C@@H](CS)C(=O)N[C@@H](CCC(N)=O)C(=O)N[C@@H](CCCCN)C(=O)N[C@@H](CC(=O)O)C(=O)N[C@@H](C)C(=O)N[C@@H](C)C(=O)N1CCC[C@H]1C(=O)N[C@@H](C)C(=O)N[C@@H](CCC(=O)O)C(=O)N[C@@H](CC(N)=O)C(=O)O)[C@@H](C)O [Q39]
- T cell epitope assignment (TH1) [1]: contain a TH1 epitope
- proportion of reactive CD4-positive and IFNγ-positive T cells [2]: particularly high
- proportion of reactive CD4-positive and IL4-positive T cells [2]: particularly high
- proportion of CD8-positive and IL4-positive cells [2]: low, and comparable to the negative control
- proportion of reactive CD8-positive and IFNγ-positive T cells [2]: particularly high
- T cell epitope assignment (TH2) [2]: contain TH2 epitopes
- T cell epitope assignment (TH1) [2]: contain a TH1 epitope

Compound: CC[C@H](C)[C@H](NC(=O)[C@H](C)NC(=O)[C@@H](NC(=O)[C@H](CO)NC(=O)[C@H](CCC(N)=O)NC(=O)[C@@H](NC(=O)[C@H](Cc1ccccc1)NC(=O)[C@H](CCCNC(=N)N)NC(=O)[C@H](Cc1ccc(O)cc1)NC(=O)[C@@H](NC(=O)[C@H](CC(=O)O)NC(=O)[C@@H](NC(=O)[C@H](CC(C)C)NC(=O)[C@H](CO)NC(=O)[C@@H](NC(=O)[C@@H](NC(=O)[C@@H]1CCCN1C(=O)[C@@H]1CCCN1C(=O)[C@@H]1CCCN1C(=O)[C@@H]1CCCN1)[C@@H](C)O)[C@@H](C)O)C(C)C)[C@@H](C)O)C(C)C)C(C)C)C(=O)O [Q38]
- T cell epitope assignment (TH1) [1]: contain a TH1 epitope
- proportion of reactive CD4-positive and IFNγ-positive T cells [2]: particularly high
- proportion of reactive CD4-positive and IL4-positive T cells [2]: particularly high
- proportion of CD8-positive and IL4-positive cells [2]: low, and comparable to the negative control
- proportion of reactive CD8-positive and IFNγ-positive T cells [2]: particularly high
- T cell epitope assignment (TH2) [2]: contain TH2 epitopes
- T cell epitope assignment (TH1) [2]: contain a TH1 epitope

Compound: CC[C@H](C)[C@H](NC(=O)[C@H](CCC(=O)O)NC(=O)[C@H](CC(=O)O)NC(=O)[C@H](CC(N)=O)NC(=O)[C@H](CCC(=O)O)NC(=O)[C@H](CCC(=O)O)NC(=O)[C@H](CCC(=O)O)NC(=O)[C@@H](N)CO)C(=O)N[C@@H](CC(=O)O)C(=O)NCC(=O)N[C@H](C(=O)N[C@@H](CC(N)=O)C(=O)N[C@@H](Cc1c[nH]cn1)C(=O)N[C@@H](CCC(N)=O)C(=O)N[C@@H](Cc1c[nH]cn1)C(=O)N[C@@H](CC(C)C)C(=O)N1CCC[C@H]1C(=O)N[C@@H](C)C(=O)N[C@@H](CCCNC(=N)N)C(=O)N[C@@H](CCCNC(=N)N)C(=O)O)C(C)C [Q47] (H-SEEENDEIDGVNHQHLPARR-OH; N-terminus and C-terminus assumed)
- T cell epitope assignment (TH1) [1]: contain a TH1 epitope
- proportion of reactive CD4-positive and IFNγ-positive T cells [2]: markedly higher than in the negative control
- proportion of CD8-positive and IL4-positive cells [2]: low, and comparable to the negative control
- proportion of reactive CD8-positive and IFNγ-positive T cells [2]: particularly high
- T cell epitope assignment (TH1) [2]: contain a TH1 epitope
- Epitope type [3]: TH1, TC
